In the series the test system is DNA having a known base sequence. The series can be described thus: Analysis of the base sequence of DNA (Sanger reaction with labeled primers, DNA sequencer equipped with a semiconductor laser). On the procedure:
A DNA having a known base sequence was used as a sample. Sanger reaction was carried out for the 4 kinds of bases using each of the labeled primers synthesized in Examples 19 to 25 or primers having a tetraazaporphin attached thereto through a linker synthesized in the same manner as in Examples 19 to 25. The DNA fragments thus obtained were separated by electrophoresis in different lanes for the 4 reaction systems, respectively, and analyzed by means of a DNA sequencer equipped with a semiconductor laser. The reaction systems contained a nonionic surfactant as an addition if necessary.
Each of the phthalocyanines disclosed in International Application Number PCT/US89/03807 was attached to the oligonucleotide primer obtained in Example 18, according to the methods of grafted patents and the methods described in Examples 19 to 25 of this invention. Using each of the phthalocyanine-attached oligonucleotides thus obtained, the base sequence of DNA was analyzed in the same manner as in Example 26.

The mark [1] stands for this setting: Triton X-100, semiconductor laser 780 nm.
The mark [2] stands for this setting: no nonionic surfactant (--), semiconductor laser 770 nm.
The mark [3] stands for this setting: Triton X-100, semiconductor laser 770 nm.

Here are results for 4 substances from US5438135A, “Water-soluble tetraazaporphins and fluorochrome for labeling” (Hitachi Chemical Company, priority 1991, dated 1995).

In the case of “bis(tributylsiloxy)silicon-tetraphenylthioquinoxalocyanineoctacarboxylic acid monohydroxypropyl ester heptasodium salt [Example 13]”, under setting [1], the “Number of bases of DNA” value came to 340 and the Precision came to 99.4%.
As for “sodium bis(tributylsiloxy)silicon-tetraphenylthionaphthalocyanine octacarboxylate [Illustrative compound No. 1]”, under setting [1], the “Number of bases of DNA” value is given as 380 and the Precision amounted to 99.7%.
For the substance “sodium bis(tripropylsiloxy)silicon-tetraethylthionaphthalocyaninetetracarboxylate [Illustrative compound No. 16]”, under setting [2], the “Number of bases of DNA” value worked out at 330 and the Precision is given as 99.7%.
As for “sodium zinc-naphthalocyaninetetracarboxylate [Illustrative compound No. 126]”, under setting [3], the “Number of bases of DNA” value was found to be 350 and the Precision came out at 99.7%.
